Test results from the supplement of paper PMC6411743.
± gives the standard deviation of the averaged measurements. Some of the results follow.

Sequences of proteins named here, by UniProt entry; tags and fusion partners are left off. A change or cut given only in a name is not applied to a line headed by its entry.
UniProt Q9Y3P8: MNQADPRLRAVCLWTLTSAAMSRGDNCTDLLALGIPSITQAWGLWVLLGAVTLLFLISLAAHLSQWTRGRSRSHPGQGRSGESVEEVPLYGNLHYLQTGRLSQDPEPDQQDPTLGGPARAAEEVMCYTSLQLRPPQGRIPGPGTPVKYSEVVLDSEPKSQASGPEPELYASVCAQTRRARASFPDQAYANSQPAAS
UniProt Q9Y487, whole entry: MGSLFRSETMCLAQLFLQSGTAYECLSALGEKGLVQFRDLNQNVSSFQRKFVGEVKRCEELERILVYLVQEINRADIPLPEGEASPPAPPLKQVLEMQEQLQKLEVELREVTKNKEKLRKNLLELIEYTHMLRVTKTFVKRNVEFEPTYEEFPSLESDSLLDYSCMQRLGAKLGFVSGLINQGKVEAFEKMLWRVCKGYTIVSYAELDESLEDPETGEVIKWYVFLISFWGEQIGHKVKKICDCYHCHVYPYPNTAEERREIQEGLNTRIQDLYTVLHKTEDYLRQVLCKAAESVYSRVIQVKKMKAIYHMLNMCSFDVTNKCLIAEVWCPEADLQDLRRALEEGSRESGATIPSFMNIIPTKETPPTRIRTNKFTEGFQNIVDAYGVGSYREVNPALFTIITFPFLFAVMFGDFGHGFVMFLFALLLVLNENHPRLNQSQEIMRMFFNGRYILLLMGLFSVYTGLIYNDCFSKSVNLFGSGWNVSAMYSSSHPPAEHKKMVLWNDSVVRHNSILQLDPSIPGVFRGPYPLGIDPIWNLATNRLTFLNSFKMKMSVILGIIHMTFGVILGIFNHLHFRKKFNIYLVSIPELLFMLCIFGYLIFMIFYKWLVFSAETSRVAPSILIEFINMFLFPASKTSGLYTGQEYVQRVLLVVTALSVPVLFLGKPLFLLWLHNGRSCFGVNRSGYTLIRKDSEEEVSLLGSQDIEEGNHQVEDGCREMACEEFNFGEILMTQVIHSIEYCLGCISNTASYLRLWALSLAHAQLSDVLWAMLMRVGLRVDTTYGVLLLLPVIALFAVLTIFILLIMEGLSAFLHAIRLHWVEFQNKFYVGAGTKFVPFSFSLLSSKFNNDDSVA
UniProt Q9Y2Y0: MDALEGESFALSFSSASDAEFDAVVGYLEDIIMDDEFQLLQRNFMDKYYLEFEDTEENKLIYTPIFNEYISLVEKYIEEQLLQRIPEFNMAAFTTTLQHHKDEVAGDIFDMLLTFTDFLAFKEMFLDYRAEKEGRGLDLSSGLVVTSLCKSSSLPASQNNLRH
UniProt Q9Y3B4: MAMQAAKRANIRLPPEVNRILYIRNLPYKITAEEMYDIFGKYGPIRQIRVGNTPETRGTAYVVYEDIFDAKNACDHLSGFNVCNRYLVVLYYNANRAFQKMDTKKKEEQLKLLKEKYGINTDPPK
UniProt Q9Y6J0: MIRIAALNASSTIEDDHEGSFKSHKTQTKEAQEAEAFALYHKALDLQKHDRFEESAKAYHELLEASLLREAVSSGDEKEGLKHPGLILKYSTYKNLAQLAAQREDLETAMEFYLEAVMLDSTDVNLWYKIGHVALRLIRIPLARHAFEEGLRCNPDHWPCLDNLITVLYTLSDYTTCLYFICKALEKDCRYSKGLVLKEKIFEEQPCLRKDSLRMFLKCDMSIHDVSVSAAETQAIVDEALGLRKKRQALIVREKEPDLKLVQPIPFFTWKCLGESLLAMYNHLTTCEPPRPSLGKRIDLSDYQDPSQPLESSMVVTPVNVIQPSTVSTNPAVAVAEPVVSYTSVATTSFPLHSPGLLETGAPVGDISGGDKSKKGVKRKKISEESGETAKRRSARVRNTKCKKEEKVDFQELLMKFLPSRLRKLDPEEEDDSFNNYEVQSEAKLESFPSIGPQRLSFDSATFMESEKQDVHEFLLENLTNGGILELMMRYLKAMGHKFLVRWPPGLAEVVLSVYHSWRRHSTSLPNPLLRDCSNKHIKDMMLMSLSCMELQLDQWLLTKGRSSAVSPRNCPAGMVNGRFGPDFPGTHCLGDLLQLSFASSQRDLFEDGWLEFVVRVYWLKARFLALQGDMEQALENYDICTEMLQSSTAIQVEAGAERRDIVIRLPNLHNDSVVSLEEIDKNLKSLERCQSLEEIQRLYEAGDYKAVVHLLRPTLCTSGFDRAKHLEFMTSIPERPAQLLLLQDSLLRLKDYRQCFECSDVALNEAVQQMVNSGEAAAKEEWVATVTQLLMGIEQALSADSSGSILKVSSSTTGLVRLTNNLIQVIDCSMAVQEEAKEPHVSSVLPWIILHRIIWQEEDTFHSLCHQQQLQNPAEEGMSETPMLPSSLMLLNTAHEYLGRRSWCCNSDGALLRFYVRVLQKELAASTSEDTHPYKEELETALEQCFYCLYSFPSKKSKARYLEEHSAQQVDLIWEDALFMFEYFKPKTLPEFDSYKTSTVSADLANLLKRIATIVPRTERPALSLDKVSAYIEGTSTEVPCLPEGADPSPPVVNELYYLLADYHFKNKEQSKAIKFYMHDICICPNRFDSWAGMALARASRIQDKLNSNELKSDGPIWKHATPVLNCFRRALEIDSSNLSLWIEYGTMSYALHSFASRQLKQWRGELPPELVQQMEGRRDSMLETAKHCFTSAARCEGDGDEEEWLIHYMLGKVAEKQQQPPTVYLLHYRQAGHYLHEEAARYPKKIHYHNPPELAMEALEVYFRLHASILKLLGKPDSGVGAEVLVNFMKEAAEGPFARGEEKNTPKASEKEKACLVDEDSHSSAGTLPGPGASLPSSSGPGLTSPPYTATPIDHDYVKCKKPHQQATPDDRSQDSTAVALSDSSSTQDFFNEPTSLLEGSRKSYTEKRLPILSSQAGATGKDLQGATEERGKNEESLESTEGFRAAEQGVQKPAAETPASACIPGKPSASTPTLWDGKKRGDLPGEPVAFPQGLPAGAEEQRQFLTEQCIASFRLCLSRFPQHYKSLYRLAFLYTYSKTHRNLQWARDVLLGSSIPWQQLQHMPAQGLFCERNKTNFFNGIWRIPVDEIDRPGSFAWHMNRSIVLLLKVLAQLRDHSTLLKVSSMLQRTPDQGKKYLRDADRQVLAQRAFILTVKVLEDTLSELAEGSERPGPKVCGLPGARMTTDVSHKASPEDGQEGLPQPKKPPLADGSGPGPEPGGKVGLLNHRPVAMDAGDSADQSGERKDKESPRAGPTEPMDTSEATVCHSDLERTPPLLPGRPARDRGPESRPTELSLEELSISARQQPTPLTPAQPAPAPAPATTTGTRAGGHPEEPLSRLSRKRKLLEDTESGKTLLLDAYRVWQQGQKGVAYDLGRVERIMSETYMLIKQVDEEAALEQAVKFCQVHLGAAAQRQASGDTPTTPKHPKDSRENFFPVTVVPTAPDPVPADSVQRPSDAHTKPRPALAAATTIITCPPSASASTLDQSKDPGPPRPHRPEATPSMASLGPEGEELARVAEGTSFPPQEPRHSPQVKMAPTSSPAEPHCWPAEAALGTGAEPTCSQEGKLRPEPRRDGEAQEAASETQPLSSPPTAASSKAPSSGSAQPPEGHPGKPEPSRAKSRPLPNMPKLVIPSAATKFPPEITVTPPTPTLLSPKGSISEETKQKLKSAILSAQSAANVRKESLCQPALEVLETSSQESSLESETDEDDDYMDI
UniProt Q9Y3L5: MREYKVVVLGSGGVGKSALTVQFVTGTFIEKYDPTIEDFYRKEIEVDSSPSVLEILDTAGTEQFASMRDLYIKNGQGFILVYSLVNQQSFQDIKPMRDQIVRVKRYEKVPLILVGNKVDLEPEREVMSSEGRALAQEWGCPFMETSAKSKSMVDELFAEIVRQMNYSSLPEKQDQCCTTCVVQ
UniProt Q9UMS4: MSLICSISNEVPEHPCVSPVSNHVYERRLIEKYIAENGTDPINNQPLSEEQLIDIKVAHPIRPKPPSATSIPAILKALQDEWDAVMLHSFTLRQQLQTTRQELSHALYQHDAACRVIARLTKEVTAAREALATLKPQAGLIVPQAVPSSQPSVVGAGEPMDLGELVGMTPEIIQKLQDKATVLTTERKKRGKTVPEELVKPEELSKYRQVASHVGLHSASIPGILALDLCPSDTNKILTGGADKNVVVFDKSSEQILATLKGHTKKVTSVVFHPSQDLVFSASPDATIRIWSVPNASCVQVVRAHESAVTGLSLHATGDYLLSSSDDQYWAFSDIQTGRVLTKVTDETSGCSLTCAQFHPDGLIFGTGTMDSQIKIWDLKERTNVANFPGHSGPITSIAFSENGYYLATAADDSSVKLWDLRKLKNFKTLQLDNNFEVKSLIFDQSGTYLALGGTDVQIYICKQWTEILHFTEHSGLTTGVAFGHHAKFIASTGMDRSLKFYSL
UniProt Q5VZ89: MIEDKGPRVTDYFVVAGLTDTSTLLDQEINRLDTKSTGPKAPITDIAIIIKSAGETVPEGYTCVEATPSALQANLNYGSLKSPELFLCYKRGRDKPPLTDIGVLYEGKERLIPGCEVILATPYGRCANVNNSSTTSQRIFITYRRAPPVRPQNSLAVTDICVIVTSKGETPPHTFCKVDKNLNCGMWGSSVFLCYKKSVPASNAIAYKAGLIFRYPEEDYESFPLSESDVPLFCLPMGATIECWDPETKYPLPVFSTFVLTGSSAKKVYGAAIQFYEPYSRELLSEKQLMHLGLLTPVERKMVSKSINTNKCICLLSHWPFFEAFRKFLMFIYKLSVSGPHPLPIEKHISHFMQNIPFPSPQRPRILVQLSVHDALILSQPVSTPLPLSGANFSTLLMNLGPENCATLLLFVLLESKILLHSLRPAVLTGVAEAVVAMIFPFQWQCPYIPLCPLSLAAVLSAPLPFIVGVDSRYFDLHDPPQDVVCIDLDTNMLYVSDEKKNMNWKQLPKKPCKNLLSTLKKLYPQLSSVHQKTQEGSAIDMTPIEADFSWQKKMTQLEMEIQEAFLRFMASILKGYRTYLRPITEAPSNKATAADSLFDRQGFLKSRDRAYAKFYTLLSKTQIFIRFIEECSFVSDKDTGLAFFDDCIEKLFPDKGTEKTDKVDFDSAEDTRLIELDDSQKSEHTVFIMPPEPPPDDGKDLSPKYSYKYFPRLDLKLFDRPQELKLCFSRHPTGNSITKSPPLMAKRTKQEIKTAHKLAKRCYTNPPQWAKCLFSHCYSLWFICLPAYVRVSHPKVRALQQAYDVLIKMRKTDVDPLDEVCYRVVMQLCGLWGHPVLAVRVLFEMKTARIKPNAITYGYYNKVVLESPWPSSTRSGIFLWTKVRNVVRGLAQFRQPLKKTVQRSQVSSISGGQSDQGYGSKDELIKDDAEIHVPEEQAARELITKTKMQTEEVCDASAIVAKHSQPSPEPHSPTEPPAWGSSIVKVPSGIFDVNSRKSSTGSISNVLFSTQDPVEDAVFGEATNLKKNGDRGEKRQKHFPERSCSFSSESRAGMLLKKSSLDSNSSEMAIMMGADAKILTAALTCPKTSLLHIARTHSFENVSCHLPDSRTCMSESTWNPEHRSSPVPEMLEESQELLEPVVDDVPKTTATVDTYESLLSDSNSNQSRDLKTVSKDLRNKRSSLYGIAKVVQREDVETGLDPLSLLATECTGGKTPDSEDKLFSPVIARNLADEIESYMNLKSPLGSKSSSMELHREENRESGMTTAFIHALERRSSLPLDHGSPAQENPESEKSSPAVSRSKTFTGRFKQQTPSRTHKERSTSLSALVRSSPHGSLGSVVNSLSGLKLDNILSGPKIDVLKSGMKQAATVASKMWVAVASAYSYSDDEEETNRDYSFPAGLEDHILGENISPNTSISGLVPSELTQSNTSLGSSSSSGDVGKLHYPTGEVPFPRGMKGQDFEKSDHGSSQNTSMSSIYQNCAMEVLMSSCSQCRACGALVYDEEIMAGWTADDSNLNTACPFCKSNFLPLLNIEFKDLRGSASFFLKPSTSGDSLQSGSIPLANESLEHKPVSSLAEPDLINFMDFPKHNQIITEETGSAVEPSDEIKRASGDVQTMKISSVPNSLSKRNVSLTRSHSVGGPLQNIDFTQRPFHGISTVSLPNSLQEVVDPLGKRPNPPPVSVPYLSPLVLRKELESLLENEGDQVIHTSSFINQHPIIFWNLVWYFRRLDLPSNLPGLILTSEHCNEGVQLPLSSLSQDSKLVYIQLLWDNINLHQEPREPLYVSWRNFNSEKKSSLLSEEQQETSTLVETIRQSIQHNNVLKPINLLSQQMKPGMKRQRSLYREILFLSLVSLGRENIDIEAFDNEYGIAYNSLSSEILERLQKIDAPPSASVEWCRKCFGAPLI
UniProt Q9Y2T7, whole entry: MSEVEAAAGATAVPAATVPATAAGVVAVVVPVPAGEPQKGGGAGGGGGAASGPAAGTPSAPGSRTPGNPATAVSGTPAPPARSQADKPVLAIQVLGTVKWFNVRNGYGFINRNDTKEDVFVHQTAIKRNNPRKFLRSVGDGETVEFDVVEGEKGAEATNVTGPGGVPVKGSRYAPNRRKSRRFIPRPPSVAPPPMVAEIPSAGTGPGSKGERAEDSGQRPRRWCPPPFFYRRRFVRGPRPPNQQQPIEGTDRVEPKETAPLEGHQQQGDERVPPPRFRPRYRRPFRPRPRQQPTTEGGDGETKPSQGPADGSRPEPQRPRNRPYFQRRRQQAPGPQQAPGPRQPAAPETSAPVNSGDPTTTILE

Compound: Nc1nc2c(ncn2[C@@H]2O[C@H](COP(=O)(O)OP(=O)(O)OP(=O)(O)O)[C@@H](O)[C@H]2O)c(=O)[nH]1 [guanosine triphosphate]
Experiment: NP40-soluble protein abundance relative to vehicle (solubility fold change) (ratio); higher = more soluble protein in presence of GTP
Method in brief: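 Across three independent experiments, values are fold changes against the detergent-processed vehicle for each replicate, based on vsn-normalised intensities. The samples were Jurkat crude lysate treated with eight concentrations (0.1 to 10 mM) for 10 min at room temperature and then 3 min at 37 °C. Lysate was solubilised with 0.8% NP40 and benzonase, ultracentrifuged, and the supernatant analysed by TMT-labelled LC-MS/MS.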

Target	NP40-soluble protein abundance (concentration: 0.1mM)	NP40-soluble protein abundance (concentration: 0.5mM)	NP40-soluble protein abundance (concentration: 1mM)	NP40-soluble protein abundance (concentration: 2mM)	NP40-soluble protein abundance (concentration: 4mM)	NP40-soluble protein abundance (concentration: 6mM)	NP40-soluble protein abundance (concentration: 8mM)	NP40-soluble protein abundance (concentration: 10mM)
RAD54L2 (UniProt Q9Y4B4)	1.04 ± 0.023	1.06 ± 0.036	1.03 ± 0.028	1.05 ± 0.033	1.02 ± 0.043	1.02 ± 0.019	1.01 ± 0.032	0.999 ± 0.051
UniProt Q9Y3P8 and related entries	0.993 ± 0.044	1.03 ± 0.053	1.08 ± 0.0043	1.14 ± 0.14	1.12 ± 0.019	1.011 ± 0.0093	1.03 ± 0.042	1.09 ± 0.04
UniProt Q9Y6A9 and related entries	0.932 ± 0.089	0.988 ± 0.052	0.921 ± 0.11	0.916 ± 0.094	0.89 ± 0.12	0.892 ± 0.1	0.867 ± 0.17	0.869 ± 0.098
LUC7L2 (UniProt Q9Y383)	1.09 ± 0.11	1.4 ± 0.08	1.58 ± 0.098	1.54 ± 0.18	1.56 ± 0.12	1.66 ± 0.12	1.74 ± 0.15	1.7 ± 0.16
UniProt Q9Y4Z0 and related entries	0.915 ± 0.038	0.88 ± 0.016	1.04 ± 0.09	1.02 ± 0.051	1.05 ± 0.027	0.979 ± 0.037	0.981 ± 0.11	1.05 ± 0.038
UniProt Q9Y2D5 and related entries	0.925 ± 0.057	0.968 ± 0.087	0.997 ± 0.12	1.01 ± 0.12	1.09 ± 0.12	1.25 ± 0.13	1.36 ± 0.1	1.42 ± 0.11
X5CMH5 (UniProt Q03519)	1.09 ± 0.036	1.08 ± 0.054	0.978 ± 0.028	1.01 ± 0.085	0.976 ± 0.063	0.951 ± 0.051	0.934 ± 0.015	0.918 ± 0.065
ATP6V0A2 (UniProt Q9Y487)	1.09 ± 0.048	1.16 ± 0.13	1.12 ± 0.094	1.21 ± 0.17	1.18 ± 0.1	1.17 ± 0.2	1.14 ± 0.2	1.14 ± 0.16
CAPN7 (UniProt Q9Y6W3)	0.939 ± 0.098	0.993 ± 0.043	0.924 ± 0.094	0.912 ± 0.038	0.905 ± 0.014	0.925 ± 0.083	0.883 ± 0.093	0.954 ± 0.053
COPS3 (UniProt Q9UNS2)	0.991 ± 0.03	0.971 ± 0.016	0.983 ± 0.042	0.98 ± 0.052	0.99 ± 0.059	0.961 ± 0.059	0.958 ± 0.029	0.972 ± 0.051
UniProt Q9Y2Y0 and related entries	0.997 ± 0.066	0.999 ± 0.02	0.991 ± 0.034	1.01 ± 0.074	0.937 ± 0.13	0.982 ± 0.1	0.879 ± 0.08	0.856 ± 0.033
UniProt Q9Y3B4	0.958 ± 0.1	0.959 ± 0.09	1.15 ± 0.18	1.23 ± 0.17	1.32 ± 0.24	1.26 ± 0.18	1.33 ± 0.2	1.52 ± 0.29
UniProt Q9Y6Q9 and related entries	1.05 ± 0.14	1.01 ± 0.036	1.08 ± 0.12	1.05 ± 0.12	1.01 ± 0.12	1.04 ± 0.1	1.06 ± 0.16	1.05 ± 0.09
UniProt Q9UPN7	0.988 ± 0.018	0.994 ± 0.059	0.976 ± 0.019	1.01 ± 0.073	1.01 ± 0.077	0.962 ± 0.077	0.964 ± 0.034	0.986 ± 0.066
UniProt Q9Y287 and related entries	0.952 ± 0.12	0.956 ± 0.064	0.9524 ± 0.0023	0.872 ± 0.038	0.90108 ± 1.4e-06	0.895 ± 0.011	0.897 ± 0.02	0.911 ± 0.0058
UniProt Q9Y6J0 and related entries	1.03 ± 0.087	1.02 ± 0.052	1.09 ± 0.023	1.06 ± 0.065	1.08 ± 0.093	1.15 ± 0.11	1.16 ± 0.13	1.16 ± 0.12
UniProt Q9Y3L5	0.939 ± 0.34	0.939 ± 0.27	0.803 ± 0.13	0.879 ± 0.26	0.873 ± 0.22	0.807 ± 0.15	0.82 ± 0.19	0.959 ± 0.29
UniProt Q9Y2I8 and related entries	1.07 ± 0.088	1.06 ± 0.12	1.02 ± 0.055	1.08 ± 0.12	1.06 ± 0.14	1.03 ± 0.085	1.01 ± 0.091	0.999 ± 0.13
PRPF19 (UniProt Q9UMS4)	0.963 ± 0.028	1.01 ± 0.044	0.963 ± 0.03	1.01 ± 0.043	1.04 ± 0.067	1.08 ± 0.089	1.1 ± 0.11	1.12 ± 0.075
UniProt Q9UNF0 and related entries	0.949 ± 0.053	0.958 ± 0.055	0.908 ± 0.027	0.881 ± 0.053	0.869 ± 0.053	0.881 ± 0.043	0.905 ± 0.021	0.91 ± 0.071
UniProt Q9Y250 and related entries	0.977 ± 0.022	0.947 ± 0.062	1.01 ± 0.017	1.02 ± 0.057	0.977 ± 0.034	1.03 ± 0.018	1.1 ± 0.087	1.09 ± 0.074
TIMM13 (UniProt Q9Y5L4)	0.993 ± 0.28	0.964 ± 0.23	1.01 ± 0.15	0.999 ± 0.16	1 ± 0.26	1.03 ± 0.082	1.07 ± 0.12	1.02 ± 0.26
R4GN35 and related entries (UniProt Q5VZ89)	1.01 ± 0.033	0.998 ± 0.044	1.02 ± 0.015	0.995 ± 0.01	0.984 ± 0.025	0.9756 ± 0.006	1.04 ± 0.047	0.998 ± 0.04
LRRC42 (UniProt Q9Y546)	1.08 ± 0.13	1.08 ± 0.034	1.11 ± 0.11	1.07 ± 0.099	1.03 ± 0.052	1.05 ± 0.057	1.09 ± 0.11	1.04 ± 0.083
NUDC (UniProt Q9Y266)	0.924 ± 0.044	0.938 ± 0.06	0.931 ± 0.058	0.88 ± 0.077	0.852 ± 0.063	0.893 ± 0.076	0.885 ± 0.056	0.872 ± 0.069
MAGED2 (UniProt Q9UNF1)	1 ± 0.039	0.993 ± 0.021	1 ± 0.025	0.978 ± 0.037	0.987 ± 0.028	0.985 ± 0.026	1.03 ± 0.026	0.982 ± 0.017
YBX2 (UniProt Q9Y2T7)	0.954 ± 0.17	0.984 ± 0.14	1.01 ± 0.088	1.02 ± 0.13	1.04 ± 0.17	1.01 ± 0.13	1.06 ± 0.095	1.09 ± 0.11

Rewritten comma-delimited: part of the list above.
Target,NP40-soluble protein abundance (concentration: 0.1mM),NP40-soluble protein abundance (concentration: 0.5mM),NP40-soluble protein abundance (concentration: 1mM),NP40-soluble protein abundance (concentration: 2mM),NP40-soluble protein abundance (concentration: 4mM),NP40-soluble protein abundance (concentration: 6mM),NP40-soluble protein abundance (concentration: 8mM),NP40-soluble protein abundance (concentration: 10mM)
UniProt Q9Y287 and related entries,0.952 ± 0.12,0.956 ± 0.064,0.9524 ± 0.0023,0.872 ± 0.038,0.90108 ± 1.4e-06,0.895 ± 0.011,0.897 ± 0.02,0.911 ± 0.0058
UniProt Q9Y6J0 and related entries,1.03 ± 0.087,1.02 ± 0.052,1.09 ± 0.023,1.06 ± 0.065,1.08 ± 0.093,1.15 ± 0.11,1.16 ± 0.13,1.16 ± 0.12
UniProt Q9Y3L5,0.939 ± 0.34,0.939 ± 0.27,0.803 ± 0.13,0.879 ± 0.26,0.873 ± 0.22,0.807 ± 0.15,0.82 ± 0.19,0.959 ± 0.29
UniProt Q9Y2I8 and related entries,1.07 ± 0.088,1.06 ± 0.12,1.02 ± 0.055,1.08 ± 0.12,1.06 ± 0.14,1.03 ± 0.085,1.01 ± 0.091,0.999 ± 0.13
PRPF19 (UniProt Q9UMS4),0.963 ± 0.028,1.01 ± 0.044,0.963 ± 0.03,1.01 ± 0.043,1.04 ± 0.067,1.08 ± 0.089,1.1 ± 0.11,1.12 ± 0.075
